A: 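ClpP1P2, Mycobacterium tuberculosis (UniProt P9WPC5 and UniProt P9WPC3). Protease assay of ClpP1P2, read by the AMC dye that it sets free. Compounds at 50 µM. Higher reads as stronger inhibition, judged from the few compounds that gave an IC50. Most other retested compounds had strongly negative values. Size under these conditions: about 69,000 compounds, about 10 of them at 50% or above in at least one test.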
B: 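Cell assay of Leishmania donovani living inside macrophages; the read-out is not stated. Compounds at 30 µM. Higher reads as stronger inhibition (inferred: compounds with an IC50 in retests scored well above the rest). Size under these conditions: about 69,000 compounds, about 1,000 of them at 50% or above in at least one test.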
C: 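Polyketide synthase Pks13, Mycobacterium tuberculosis (UniProt I6X8D2). Enzyme assay of the thioesterase domain of polyketide synthase 13; the read-out is not stated. Concentration: 30 µM. The record gives no direction; the compounds picked for IC50 retests had high values, so higher reads as stronger inhibition. Of about 67,000 compounds tested this way, about 300 (0.46%) reached 50% or more in at least one test.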
D: 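Lysine-tRNA ligase, Plasmodium falciparum 3D7 (UniProt Q8IDJ8). Enzyme assay of the cytosolic lysyl-tRNA synthetase in 384-well plates, read by luminescence. Concentration: 30 µM. Higher reads as stronger inhibition, judged from the few compounds that gave an IC50. About 69,000 compounds were tested under these conditions; 0.071% (about 49) showed 50% or more at least once.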
E: 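Assay of Toxoplasma gondii numbers, read through their beta-galactosidase reporter with a colour substrate. Tested at 10 µM. The record gives no direction; the compounds picked for IC50 retests had high values, so higher reads as fewer parasites. Size under these conditions: about 67,000 compounds, about 260 of them at 50% or above in at least one test.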

Amino acid sequences for entries named in this document (tags omitted). Residues count along the entry.
UniProt P9WPC5, whole entry: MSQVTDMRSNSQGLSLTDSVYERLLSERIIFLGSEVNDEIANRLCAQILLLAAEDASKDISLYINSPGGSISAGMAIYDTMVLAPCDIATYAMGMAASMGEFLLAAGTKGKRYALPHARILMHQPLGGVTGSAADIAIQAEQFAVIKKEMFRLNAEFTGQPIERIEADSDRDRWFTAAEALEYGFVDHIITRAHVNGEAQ
UniProt P9WPC3, whole entry partner: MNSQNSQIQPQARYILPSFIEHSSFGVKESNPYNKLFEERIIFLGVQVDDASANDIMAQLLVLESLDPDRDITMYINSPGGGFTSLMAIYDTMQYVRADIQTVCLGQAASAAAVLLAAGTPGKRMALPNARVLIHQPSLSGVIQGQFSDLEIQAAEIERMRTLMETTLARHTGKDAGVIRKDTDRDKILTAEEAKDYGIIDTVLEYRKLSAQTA
UniProt I6X8D2, whole entry: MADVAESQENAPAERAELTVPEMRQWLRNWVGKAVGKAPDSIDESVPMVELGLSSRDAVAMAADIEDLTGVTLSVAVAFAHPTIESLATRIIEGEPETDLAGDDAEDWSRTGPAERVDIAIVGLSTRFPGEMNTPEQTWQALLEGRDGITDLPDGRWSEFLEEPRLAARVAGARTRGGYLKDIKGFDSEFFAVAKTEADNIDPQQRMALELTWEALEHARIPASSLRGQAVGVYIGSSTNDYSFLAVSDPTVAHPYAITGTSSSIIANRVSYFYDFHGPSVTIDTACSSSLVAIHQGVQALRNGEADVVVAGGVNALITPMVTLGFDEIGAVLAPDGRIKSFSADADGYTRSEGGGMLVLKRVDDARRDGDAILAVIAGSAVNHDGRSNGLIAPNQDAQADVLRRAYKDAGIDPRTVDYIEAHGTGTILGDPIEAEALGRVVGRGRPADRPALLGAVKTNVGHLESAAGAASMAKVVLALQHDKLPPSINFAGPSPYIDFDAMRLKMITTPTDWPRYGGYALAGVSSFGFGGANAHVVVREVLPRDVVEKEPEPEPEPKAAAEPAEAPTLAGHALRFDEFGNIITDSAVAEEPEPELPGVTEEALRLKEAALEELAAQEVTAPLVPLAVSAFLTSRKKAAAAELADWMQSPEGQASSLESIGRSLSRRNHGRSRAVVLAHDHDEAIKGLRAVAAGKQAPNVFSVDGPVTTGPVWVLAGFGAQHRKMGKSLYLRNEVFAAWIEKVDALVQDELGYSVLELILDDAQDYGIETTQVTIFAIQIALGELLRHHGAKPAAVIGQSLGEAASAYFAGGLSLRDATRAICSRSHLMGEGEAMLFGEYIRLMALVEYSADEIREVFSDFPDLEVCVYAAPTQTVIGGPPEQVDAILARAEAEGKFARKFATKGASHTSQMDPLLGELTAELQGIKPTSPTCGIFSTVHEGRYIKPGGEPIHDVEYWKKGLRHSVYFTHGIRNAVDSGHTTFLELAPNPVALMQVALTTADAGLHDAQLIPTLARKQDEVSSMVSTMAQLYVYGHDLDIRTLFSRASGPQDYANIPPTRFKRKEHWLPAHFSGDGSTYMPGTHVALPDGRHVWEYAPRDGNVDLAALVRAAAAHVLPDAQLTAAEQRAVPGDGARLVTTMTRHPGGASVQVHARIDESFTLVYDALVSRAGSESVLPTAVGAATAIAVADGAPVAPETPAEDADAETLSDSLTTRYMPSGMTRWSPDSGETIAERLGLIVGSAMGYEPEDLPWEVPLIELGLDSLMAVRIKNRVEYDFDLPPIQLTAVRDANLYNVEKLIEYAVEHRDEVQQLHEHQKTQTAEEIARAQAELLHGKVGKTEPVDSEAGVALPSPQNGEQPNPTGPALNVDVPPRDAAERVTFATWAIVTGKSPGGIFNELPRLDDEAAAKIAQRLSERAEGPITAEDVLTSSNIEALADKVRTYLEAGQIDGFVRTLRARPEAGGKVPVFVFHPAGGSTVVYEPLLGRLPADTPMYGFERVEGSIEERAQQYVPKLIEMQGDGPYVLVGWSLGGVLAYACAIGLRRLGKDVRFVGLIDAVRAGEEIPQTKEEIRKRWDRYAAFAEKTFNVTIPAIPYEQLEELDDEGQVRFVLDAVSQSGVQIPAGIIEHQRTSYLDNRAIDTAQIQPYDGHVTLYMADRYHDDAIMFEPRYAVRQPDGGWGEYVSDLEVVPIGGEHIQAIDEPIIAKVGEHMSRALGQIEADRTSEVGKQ
UniProt Q8IDJ8, 1-583: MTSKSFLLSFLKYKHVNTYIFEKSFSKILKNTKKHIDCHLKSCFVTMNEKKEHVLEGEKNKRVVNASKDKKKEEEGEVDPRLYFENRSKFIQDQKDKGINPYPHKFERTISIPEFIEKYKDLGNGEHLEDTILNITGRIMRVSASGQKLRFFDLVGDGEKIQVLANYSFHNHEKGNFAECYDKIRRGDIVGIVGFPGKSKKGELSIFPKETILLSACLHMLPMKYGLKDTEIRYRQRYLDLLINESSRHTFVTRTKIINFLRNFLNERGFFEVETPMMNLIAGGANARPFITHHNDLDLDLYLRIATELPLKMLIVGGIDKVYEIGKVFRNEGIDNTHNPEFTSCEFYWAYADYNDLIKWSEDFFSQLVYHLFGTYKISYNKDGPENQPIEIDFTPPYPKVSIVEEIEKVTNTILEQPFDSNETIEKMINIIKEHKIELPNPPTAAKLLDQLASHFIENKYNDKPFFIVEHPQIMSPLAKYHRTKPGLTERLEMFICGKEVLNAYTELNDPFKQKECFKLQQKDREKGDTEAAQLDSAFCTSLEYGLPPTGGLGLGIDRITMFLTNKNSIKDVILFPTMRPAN

Each number is a percent effect as filed. The record does not define 0% and 100%; most values in the screen are far below 50% and negative numbers occur (in some assays of this library far below -100). The compounds are a random part of those screened. Two or more numbers in one place are separate tests of the same structure; such repeats can differ widely. A dash means the value is not listed here; it may have been measured.

For Cc1ccc(CN2CCN(c3nc4c(s3)c(C)nn4C)C(C)C2=O)cc1 (stereo not given) the result was A: 5.509%; B: 7.715%; C: -19.34%; D: 3.987%; E: 7.102%. CN(C)C(C(=O)NCC1(C)COC1)c1cccc(F)c1 (stereo not given) read A: -7.734%; B: 12.64%; C: -47.63%; D: 0.07919%; E: 1.361%. COC1(CNC(=O)c2ccoc2)CCSC1 (stereo not given) gave A: -19.32%; B: 26.93% and 8.187%; C: -9.193%; D: 6.201%; E: 5.937%. With O=C(O)C(F)(F)F.[H][C@@]12CCN(C(=O)c3cnn(C)c3)[C@@]1([H])CCN2Cc1cccc(C#N)c1 the screen gave B: 25.23%; E: -1.366%. Result for COc1ccc(C(C)NS(=O)(=O)c2ccc3c(c2)CCC(=O)N3)cc1F (stereo not given) was A: -2.057%; B: -8.443%; C: -18.48%; D: -4.786%; E: 5.12%.

With Cc1nn(C)c(Oc2ccccc2)c1CNC1CCCCNC1=O (stereo not given) the screen gave A: 4.155%; B: -9.43%; C: -31.65%; D: 4.062%; E: -2.876%. Cc1noc(CN(C)CC2(O)CCCN(CCC3CCCCC3)C2=O)n1 (stereo not given) read A: -1.779%; B: 14.96%; D: 3.601%. COc1ccc(C(C)n2ccnc2-c2cc3n(n2)CCCNC3)cc1F (stereo not given) gave A: -5.805%; B: 14.13%; C: -24.4%; D: 5.938%; E: 1.857%. CC(C)c1ocnc1C(=O)N1CC(=O)Nc2cccnc21 gave A: -6.433%; B: 13.17%; C: 2.992%; D: 1.955%; E: 0.2682%. O=C(CCNS(=O)(=O)c1cccnc1)N1CCCCC1 gave A: 8.742%; B: 5.235%; C: -22.05%; D: -0.6721%; E: 1.003%.

Result for COCC1CN(S(=O)(=O)Cc2ccccc2)Cc2c1cnn2C.O=C(O)C(F)(F)F (stereo not given) was B: 23.3%; E: -1.348%. With O=C(COCC1CC1)Nc1ncccc1I the screen gave A: 6.895%; B: 12.85%; C: -7.583%; D: 0.7246%; E: 20.71%. With c1cc2c(cc1C1CCCN1Cc1nnnn1C1CC1)OCCO2 (stereo not given) the screen gave A: -12.41%; B: -18.45%; C: -21.44%; D: 4.702%; E: 2.035%. For O=C(c1ccc(=O)[nH]n1)N1CCNCC1c1ccccc1 (stereo not given) the result was A: -28.51%; B: -5.209%; C: -5.703%; D: 1.297%; E: 3.295%. Cc1c(Br)cccc1CNC1(CCO)CCOCC1 gave A: -2.906%; B: 7.77%; C: 0.6346%; D: -1.627%; E: -0.4927%.

Result for COCC(C)NC(=O)NCCCc1cc(N)n(-c2ccccc2)n1 (stereo not given) was A: -2.605%; B: 6.199%; C: -5.315%; D: 0.8792%; E: 4.291%. CCOC(C(=O)N1CCn2c(nnc2C(C)C)C1)c1ccccc1 (stereo not given) read A: 15.81%; B: -17.06%; D: -10.15%; E: 3.499%. With CNc1ncc(C(=O)N2CC[C@@](O)(C3CCOCC3)[C@H](C)C2)cn1 the screen gave A: -5.376%; B: 6.14%; C: -0.1284%; D: 0.6251%; E: -4.38%. For Cc1nc(CN(C)S(=O)(=O)c2ccccc2C(F)(F)F)no1 the result was A: -10.46%; B: 10.34%; C: 0.3413%; D: 0.6889%; E: -4.799%. [H][C@@]12CCN(C(=O)c3ccco3)C[C@]1([H])[C@@H](CNC(=O)C1CC1)OC2 read B: 23.43%; E: 1.329%.

COc1cc(C)c(CNC(C)c2csc(C3CC3)n2)cc1OC (stereo not given) read A: -8.694%; B: 19.96%; D: 1.377%; E: 14.59%. Result for COCCN1CCC(CNC(=O)C2(c3ccc(Br)cc3)CCCC2)C1 (stereo not given) was A: -53.5%; B: 34.18%; C: -0.4616%; D: -1.155%; E: -2.517%. CS(=O)(=O)N1CC[C@]2(C[C@@H](Oc3ccccn3)CO2)C1.O=C(O)C(F)(F)F gave B: -0.9375%; E: 13.01%. With COCc1nn(C(C)C)c2c1CCN(Cc1ccoc1)C2 the screen gave A: -12.47%; C: -0.8775%; D: 5.442%. O=C(CSCCN1CCOCC1)N1CCc2ccccc2C1 gave A: -9.431%; B: -9.334%; C: -5.031%; D: 2.118%; E: 0.1666%.

For COc1c(CNCCNC(=O)c2cccc(C)c2)c(C)nn1C the result was A: -8.81%; C: -19.23%; D: 0.9754%. Result for Cc1cc(C(=O)N(C)Cc2cnn(C)c2)c(NC(=O)C(C)(C)C)s1 was A: -0.2686%; B: 1.742%; C: -15.17%; D: 1.592%; E: -5.239%.

For reference, 3 entries once more:

Compound,A,B,C,D,E
COc1c(CNCCNC(=O)c2cccc(C)c2)c(C)nn1C,-8.81,-,-19.23,0.9754,-
O=C(c1ccc(=O)[nH]n1)N1CCNCC1c1ccccc1 (stereo not given),-28.51,-5.209,-5.703,1.297,3.295
O=C(CCNS(=O)(=O)c1cccnc1)N1CCCCC1,8.742,5.235,-22.05,-0.6721,1.003

From ChEMBL document CHEMBL3988442, “University of Dundee, Small-Polar-MMV Screening Library” (2021).